{
  "source": "patent US10183055B2",
  "about": "“Ang-(1-7) derivative oligopeptides for the treatment of pain and other indications” (ARIZONA BOARD OF REGENTS ON BEHALF OF THE UNIVERSITY OF …, priority 2014, dated 2019)",
  "key": {"[1]": {"test_system": "BALB/cAnNHsd mice with intramedullary 66.1 cells (CIBP)", "assay": "Established CIBP, acute behavioral testing (flinching/guarding)", "type": "in vivo", "conditions": "0.36 or 1 μg/kg i.p., 14 days post-surgery", "description": "Animals: Female BALB/cAnNHsd mice (Harlan, Ind., USA) between 15 and 20 g were used in this study. Mice were housed in a climate control room on a 12-hour light/dark cycle and allowed food and water ad libitum. Animals were monitored on days 0, 7, 10, and 14 of the study for clinical signs of rapid weight loss and signs of distress.\nAll intraperitoneal (i.p.) injections were made at a volume of 10 mL/kg.\nArthrotomy—Intramedullary Implantation of 66.1 Cells: To induce CIBP, an arthrotomy was performed. Briefly, animals were anesthetized with 80 mg/kg ketamine-12 mg/kg xylazine (in a 10 mL/kg volume). The surgical area was shaved and cleaned with 70% ethanol and betadine. The condyles of the right femur were exposed and a burr-hole (0.66 mm) was drilled to create a space for the 66.1 cell inoculation. A 5 μl volume of 66.1 cells (8,000 cells per 1 μl) in MEM (or 5 μl MEM without cells in sham animals) was injected into the intramedullary space of the mouse femora. Proper placement of the injector was confirmed by radiograph (Faxitron X-ray imaging). Holes were sealed with bone cement and the patella reset. […]\nAcute Behavioral Testing: Fourteen days post-surgery, baseline behaviors of spontaneous flinching/guarding were recorded. […] The total number of flinches and the time spent guarding 2 min duration was recorded. […]"}, "[2]": {"test_system": "naïve mice", "assay": "Warm water (52° C.) tail flick test", "type": "in vivo"}, "[3]": {"target": "T1, Mas receptor (MasR) (Homo sapiens, UniProt P04201)", "T1 sequence (P04201 1-325)": "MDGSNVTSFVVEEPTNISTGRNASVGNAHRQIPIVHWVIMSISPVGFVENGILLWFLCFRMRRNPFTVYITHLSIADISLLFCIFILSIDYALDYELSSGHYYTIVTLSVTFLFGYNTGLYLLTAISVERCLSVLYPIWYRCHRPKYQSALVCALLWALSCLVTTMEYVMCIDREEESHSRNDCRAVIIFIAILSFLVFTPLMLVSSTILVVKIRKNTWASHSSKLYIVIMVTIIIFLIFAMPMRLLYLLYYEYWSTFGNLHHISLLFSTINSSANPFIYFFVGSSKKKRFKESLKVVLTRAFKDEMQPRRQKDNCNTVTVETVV", "conditions": "cited from earlier work"}},
  "note": "At least one peptide structure holds a part that was inferred or is arguable (an end, a ring closure or a residue).",
  "data": [
    {"compound": "CC[C@H](C)[C@H](NC(=O)[C@H](Cc1ccc(O)cc1)NC(=O)[C@@H](NC(=O)[C@H](CCCNC(=N)N)NC(=O)[C@@H](N)CC(=O)O)C(C)C)C(=O)N[C@@H](Cc1c[nH]cn1)C(=O)N1CCC[C@H]1C(=O)O", "note": "[Ang-(1-7), Asp-Arg-Val-Tyr-Ile-His-Pro]", "values": [
      {"measurement": "spontaneous pain behaviors after acute i.p. administration", "setting": "[1]", "result": "significant (p<0.01, n=8) reduction in spontaneous pain behaviors"},
      {"measurement": "tail flick latency MPE", "setting": "[2]; 1 μg/kg i.p.", "result": 27.8, "unit": "%"},
      {"measurement": "tail flick latency MPE", "setting": "[2]; 10 μg/kg i.p.", "result": 20.2, "unit": "%"},
      {"measurement": "selectivity for Mas receptor over the AT1 and AT2 receptors", "setting": "[3]", "result": "60-100 fold"}
    ]}
  ]
}
